Our source for the binding values is article PMC12461627, “Locking CBL TKBD in its native conformation presents a novel therapeutic opportunity in mutant CBL-dependent leukemia” (Molecular Therapy, 2025).

Sequences of proteins named here, by UniProt entry; tags and fusion partners are left off.
UniProt Q13191: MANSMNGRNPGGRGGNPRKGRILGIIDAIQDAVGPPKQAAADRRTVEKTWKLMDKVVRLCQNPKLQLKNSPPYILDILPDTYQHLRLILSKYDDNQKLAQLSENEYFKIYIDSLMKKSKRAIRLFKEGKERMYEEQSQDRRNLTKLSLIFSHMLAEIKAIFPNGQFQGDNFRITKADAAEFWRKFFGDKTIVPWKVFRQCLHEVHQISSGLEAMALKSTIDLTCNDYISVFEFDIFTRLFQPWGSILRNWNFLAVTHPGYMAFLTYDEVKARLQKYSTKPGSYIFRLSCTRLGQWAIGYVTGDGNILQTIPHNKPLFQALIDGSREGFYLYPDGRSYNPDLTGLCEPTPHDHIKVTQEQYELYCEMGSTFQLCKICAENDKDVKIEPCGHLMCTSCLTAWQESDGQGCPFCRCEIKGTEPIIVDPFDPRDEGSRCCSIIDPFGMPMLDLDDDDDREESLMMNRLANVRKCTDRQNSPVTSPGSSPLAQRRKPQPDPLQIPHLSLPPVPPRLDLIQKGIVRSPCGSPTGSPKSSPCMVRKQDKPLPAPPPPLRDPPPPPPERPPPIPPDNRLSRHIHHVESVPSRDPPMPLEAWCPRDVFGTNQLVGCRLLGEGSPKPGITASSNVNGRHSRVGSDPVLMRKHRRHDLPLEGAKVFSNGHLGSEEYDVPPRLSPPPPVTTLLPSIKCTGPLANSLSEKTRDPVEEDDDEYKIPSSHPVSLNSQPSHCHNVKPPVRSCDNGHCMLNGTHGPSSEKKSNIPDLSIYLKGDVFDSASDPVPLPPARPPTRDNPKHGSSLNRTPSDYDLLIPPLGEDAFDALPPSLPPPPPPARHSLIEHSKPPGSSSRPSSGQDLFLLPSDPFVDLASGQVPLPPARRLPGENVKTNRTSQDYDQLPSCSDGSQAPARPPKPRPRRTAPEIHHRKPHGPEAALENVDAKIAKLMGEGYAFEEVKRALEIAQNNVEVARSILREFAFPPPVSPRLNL

This test has as its target T1, GFP-peptide10 fusion protein (expressed in HEK293).
T1 sequence: MTVEEMDSWIKSWDQM
Description: affinity purification with mass spectrometry; GFP fusion or empty vector expressed in HEK293, precipitated with GFP trap, on-bead digestion, label-free quantification.

No constants are given. Whether binding was seen depends on the method and setting. In cells and extracts the contact can be indirect. A yes stands for co-enrichment or nearness to the bait. Other partners may have been found. Sequences can lack the tags named with a protein.

Take “CBL-B (endogenous, HEK293) (from UniProt Q13191 1-982)”: the binding result is recorded as “binds”.
